Experimental findings from article doi:10.1101/2024.11.19.624255 are described below.

Targets include dN-SARM1 L607A (human) (UniProt Q6SZW1); dN-SARM1 W662A (human) (UniProt Q6SZW1); dN-SARM1 F603A (human) (UniProt Q6SZW1); dN-SARM1 R569A (human) (UniProt Q6SZW1).
Common to all, as to assay: differential centrifugation
Test [1] concerns the target dN-SARM1 E642A (human) (UniProt Q6SZW1).
For test [2] the target is unchanged. The source holds these as a separate data set.

Where two headings read alike, the source gives them in different places. These are yes or no findings as the source states them, for the method shown.

B1: dN-SARM1 E642A (enzyme, UniProt Q6SZW1 28-724)
chain: LAVPGPDGGGGTGPWWAAGGRGPREVSPGAGTEVQDALERALPELQQALSALKQAGGARAVGAGLAEVFQLVEEAWLLPAVGREVAQGLCDAIRLDGGLDLLLRLLQAPELETRVQAARLLEQILVAENRDRVARIGLGVILNLAKEREPVELARSVAGILEHMFKHSEETCQRLVAAGGLDAVLYWCRRTDPALLRHCALALGNCALHGGQAVQRRMVEKRAAEWLFPLAFSKEDELLRLHACLAVAVLATNKEVEREVERSGTLALVEPLVASLDPGRFARCLVDASDTSQGRGPDDLQRLVPLLDSNRLEAQCIGAFYLCAEAAIKSLQGKTKVFSDIGAIQSLKRLVSYSTNGTKSALAKRALRLLGEEVPRPILPSVPSWKEAEVQTWLQQIGFSKYCESFREQQVDGDLLLRLTEEELQTDLGMKSGITRKRFFRELTELKTFANYSTCDRSNLADWLGSLDPRFRQYTYGLVSCGLDRSLLHRVSEQQLLEDCGIHLGVHRARILTAAREMLHSPLPCTGGKPSGDTPDVFISYRRNSGSQLASLLKVHLQLHGFSVFIDVEKLEAGKFEDKLIQSVMGARNFVLVLSPGALDKCMQDHDCKDWVHKAIVTALSCGKNIVPIIDGFEWPEPQVLPEDMQAVLTFNGIKWSHEYQEATIEKIIRFLQGRSSRDSSAGSDTSLEGAAPMGPT
For the molecule B1, the binding entry in the test with dN-SARM1 E642A (human) [1] is “no binding (tested: SIR3 7 μM on cells)”; with dN-SARM1 E642A (human) [2], “no binding (tested: SIR3-ADPR 100 μM)”.

B2: dN-SARM1 L607A (enzyme, UniProt Q6SZW1 28-724)
chain: LAVPGPDGGGGTGPWWAAGGRGPREVSPGAGTEVQDALERALPELQQALSALKQAGGARAVGAGLAEVFQLVEEAWLLPAVGREVAQGLCDAIRLDGGLDLLLRLLQAPELETRVQAARLLEQILVAENRDRVARIGLGVILNLAKEREPVELARSVAGILEHMFKHSEETCQRLVAAGGLDAVLYWCRRTDPALLRHCALALGNCALHGGQAVQRRMVEKRAAEWLFPLAFSKEDELLRLHACLAVAVLATNKEVEREVERSGTLALVEPLVASLDPGRFARCLVDASDTSQGRGPDDLQRLVPLLDSNRLEAQCIGAFYLCAEAAIKSLQGKTKVFSDIGAIQSLKRLVSYSTNGTKSALAKRALRLLGEEVPRPILPSVPSWKEAEVQTWLQQIGFSKYCESFREQQVDGDLLLRLTEEELQTDLGMKSGITRKRFFRELTELKTFANYSTCDRSNLADWLGSLDPRFRQYTYGLVSCGLDRSLLHRVSEQQLLEDCGIHLGVHRARILTAAREMLHSPLPCTGGKPSGDTPDVFISYRRNSGSQLASLLKVHLQLHGFSVFIDVEKLEAGKFEDKAIQSVMGARNFVLVLSPGALDKCMQDHDCKDWVHKEIVTALSCGKNIVPIIDGFEWPEPQVLPEDMQAVLTFNGIKWSHEYQEATIEKIIRFLQGRSSRDSSAGSDTSLEGAAPMGPT
B2: the binding result with dN-SARM1 L607A (human) is listed as “no binding”.

B3: dN-SARM1 W662A (enzyme, UniProt Q6SZW1 28-724)
chain: LAVPGPDGGGGTGPWWAAGGRGPREVSPGAGTEVQDALERALPELQQALSALKQAGGARAVGAGLAEVFQLVEEAWLLPAVGREVAQGLCDAIRLDGGLDLLLRLLQAPELETRVQAARLLEQILVAENRDRVARIGLGVILNLAKEREPVELARSVAGILEHMFKHSEETCQRLVAAGGLDAVLYWCRRTDPALLRHCALALGNCALHGGQAVQRRMVEKRAAEWLFPLAFSKEDELLRLHACLAVAVLATNKEVEREVERSGTLALVEPLVASLDPGRFARCLVDASDTSQGRGPDDLQRLVPLLDSNRLEAQCIGAFYLCAEAAIKSLQGKTKVFSDIGAIQSLKRLVSYSTNGTKSALAKRALRLLGEEVPRPILPSVPSWKEAEVQTWLQQIGFSKYCESFREQQVDGDLLLRLTEEELQTDLGMKSGITRKRFFRELTELKTFANYSTCDRSNLADWLGSLDPRFRQYTYGLVSCGLDRSLLHRVSEQQLLEDCGIHLGVHRARILTAAREMLHSPLPCTGGKPSGDTPDVFISYRRNSGSQLASLLKVHLQLHGFSVFIDVEKLEAGKFEDKLIQSVMGARNFVLVLSPGALDKCMQDHDCKDWVHKEIVTALSCGKNIVPIIDGFEAPEPQVLPEDMQAVLTFNGIKWSHEYQEATIEKIIRFLQGRSSRDSSAGSDTSLEGAAPMGPT
Take B3: the binding entry in the test with dN-SARM1 W662A (human) is reported as “no binding”.

B4: dN-SARM1 F603A (enzyme, UniProt Q6SZW1 28-724)
chain: LAVPGPDGGGGTGPWWAAGGRGPREVSPGAGTEVQDALERALPELQQALSALKQAGGARAVGAGLAEVFQLVEEAWLLPAVGREVAQGLCDAIRLDGGLDLLLRLLQAPELETRVQAARLLEQILVAENRDRVARIGLGVILNLAKEREPVELARSVAGILEHMFKHSEETCQRLVAAGGLDAVLYWCRRTDPALLRHCALALGNCALHGGQAVQRRMVEKRAAEWLFPLAFSKEDELLRLHACLAVAVLATNKEVEREVERSGTLALVEPLVASLDPGRFARCLVDASDTSQGRGPDDLQRLVPLLDSNRLEAQCIGAFYLCAEAAIKSLQGKTKVFSDIGAIQSLKRLVSYSTNGTKSALAKRALRLLGEEVPRPILPSVPSWKEAEVQTWLQQIGFSKYCESFREQQVDGDLLLRLTEEELQTDLGMKSGITRKRFFRELTELKTFANYSTCDRSNLADWLGSLDPRFRQYTYGLVSCGLDRSLLHRVSEQQLLEDCGIHLGVHRARILTAAREMLHSPLPCTGGKPSGDTPDVFISYRRNSGSQLASLLKVHLQLHGFSVFIDVEKLEAGKAEDKLIQSVMGARNFVLVLSPGALDKCMQDHDCKDWVHKEIVTALSCGKNIVPIIDGFEWPEPQVLPEDMQAVLTFNGIKWSHEYQEATIEKIIRFLQGRSSRDSSAGSDTSLEGAAPMGPT
Consider B4, for which the binding result in the test with dN-SARM1 F603A (human) was “no binding”.

B5: dN-SARM1 R569A (enzyme, UniProt Q6SZW1 28-724)
chain: LAVPGPDGGGGTGPWWAAGGRGPREVSPGAGTEVQDALERALPELQQALSALKQAGGARAVGAGLAEVFQLVEEAWLLPAVGREVAQGLCDAIRLDGGLDLLLRLLQAPELETRVQAARLLEQILVAENRDRVARIGLGVILNLAKEREPVELARSVAGILEHMFKHSEETCQRLVAAGGLDAVLYWCRRTDPALLRHCALALGNCALHGGQAVQRRMVEKRAAEWLFPLAFSKEDELLRLHACLAVAVLATNKEVEREVERSGTLALVEPLVASLDPGRFARCLVDASDTSQGRGPDDLQRLVPLLDSNRLEAQCIGAFYLCAEAAIKSLQGKTKVFSDIGAIQSLKRLVSYSTNGTKSALAKRALRLLGEEVPRPILPSVPSWKEAEVQTWLQQIGFSKYCESFREQQVDGDLLLRLTEEELQTDLGMKSGITRKRFFRELTELKTFANYSTCDRSNLADWLGSLDPRFRQYTYGLVSCGLDRSLLHRVSEQQLLEDCGIHLGVHRARILTAAREMLHSPLPCTGGKPSGDTPDVFISYARNSGSQLASLLKVHLQLHGFSVFIDVEKLEAGKFEDKLIQSVMGARNFVLVLSPGALDKCMQDHDCKDWVHKEIVTALSCGKNIVPIIDGFEWPEPQVLPEDMQAVLTFNGIKWSHEYQEATIEKIIRFLQGRSSRDSSAGSDTSLEGAAPMGPT
Regarding B5, in the test with dN-SARM1 R569A (human), the binding entry is “no binding”.
